Screening data, single-dose tests

Sequences of proteins named here, by UniProt entry; tags and fusion partners are left off. Residues count along the entry.
UniProt P9WPC5, whole entry: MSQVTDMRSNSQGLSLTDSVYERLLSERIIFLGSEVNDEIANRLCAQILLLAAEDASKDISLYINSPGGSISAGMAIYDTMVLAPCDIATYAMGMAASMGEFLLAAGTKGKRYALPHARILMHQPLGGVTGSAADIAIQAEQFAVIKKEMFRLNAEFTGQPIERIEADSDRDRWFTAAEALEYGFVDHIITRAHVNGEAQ
UniProt P9WPC3, whole entry partner: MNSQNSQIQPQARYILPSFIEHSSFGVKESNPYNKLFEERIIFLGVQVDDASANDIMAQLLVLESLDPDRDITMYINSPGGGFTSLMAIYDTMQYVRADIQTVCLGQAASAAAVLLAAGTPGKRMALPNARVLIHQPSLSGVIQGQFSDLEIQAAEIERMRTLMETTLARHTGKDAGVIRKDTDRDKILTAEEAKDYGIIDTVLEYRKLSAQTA
UniProt Q8IDJ8, 1-583: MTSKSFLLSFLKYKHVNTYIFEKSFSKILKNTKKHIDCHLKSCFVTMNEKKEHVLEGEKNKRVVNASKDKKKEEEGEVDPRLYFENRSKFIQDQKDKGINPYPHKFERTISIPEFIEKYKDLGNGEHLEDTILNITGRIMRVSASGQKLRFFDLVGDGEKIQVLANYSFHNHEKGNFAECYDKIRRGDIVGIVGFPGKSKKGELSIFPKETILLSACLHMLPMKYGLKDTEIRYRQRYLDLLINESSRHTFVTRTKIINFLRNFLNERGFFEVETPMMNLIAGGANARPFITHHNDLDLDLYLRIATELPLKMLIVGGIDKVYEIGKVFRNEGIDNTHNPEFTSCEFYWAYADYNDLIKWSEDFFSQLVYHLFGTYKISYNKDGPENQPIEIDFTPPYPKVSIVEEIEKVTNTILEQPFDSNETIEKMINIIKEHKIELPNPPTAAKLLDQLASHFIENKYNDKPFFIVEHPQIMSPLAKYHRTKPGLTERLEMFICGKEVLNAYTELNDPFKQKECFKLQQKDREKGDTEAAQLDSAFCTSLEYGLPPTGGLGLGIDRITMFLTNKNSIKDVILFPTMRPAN
UniProt P9WFT3, whole entry: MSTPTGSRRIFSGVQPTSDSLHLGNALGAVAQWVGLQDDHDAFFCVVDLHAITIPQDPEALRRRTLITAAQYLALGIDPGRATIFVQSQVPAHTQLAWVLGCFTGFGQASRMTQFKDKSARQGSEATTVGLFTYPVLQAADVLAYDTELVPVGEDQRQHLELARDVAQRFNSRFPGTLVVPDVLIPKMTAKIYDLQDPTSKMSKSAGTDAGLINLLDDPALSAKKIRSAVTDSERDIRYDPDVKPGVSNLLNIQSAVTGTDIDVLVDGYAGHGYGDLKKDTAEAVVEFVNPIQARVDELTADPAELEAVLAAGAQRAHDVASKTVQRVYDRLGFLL
UniProt A4I591, 1-473: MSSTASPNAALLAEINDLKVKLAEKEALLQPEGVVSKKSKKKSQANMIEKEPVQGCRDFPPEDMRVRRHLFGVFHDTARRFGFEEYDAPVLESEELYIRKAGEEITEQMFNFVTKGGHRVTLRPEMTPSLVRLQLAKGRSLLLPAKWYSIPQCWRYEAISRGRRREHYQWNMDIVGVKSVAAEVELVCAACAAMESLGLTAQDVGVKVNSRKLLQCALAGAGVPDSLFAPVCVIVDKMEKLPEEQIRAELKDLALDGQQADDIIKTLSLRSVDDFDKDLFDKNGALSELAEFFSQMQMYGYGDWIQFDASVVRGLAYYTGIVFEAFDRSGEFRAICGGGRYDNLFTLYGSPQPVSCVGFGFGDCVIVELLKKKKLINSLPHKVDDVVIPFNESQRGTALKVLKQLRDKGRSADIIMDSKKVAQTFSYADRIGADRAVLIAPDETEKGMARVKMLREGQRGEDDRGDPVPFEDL
UniProt Q4DA54, 1-478: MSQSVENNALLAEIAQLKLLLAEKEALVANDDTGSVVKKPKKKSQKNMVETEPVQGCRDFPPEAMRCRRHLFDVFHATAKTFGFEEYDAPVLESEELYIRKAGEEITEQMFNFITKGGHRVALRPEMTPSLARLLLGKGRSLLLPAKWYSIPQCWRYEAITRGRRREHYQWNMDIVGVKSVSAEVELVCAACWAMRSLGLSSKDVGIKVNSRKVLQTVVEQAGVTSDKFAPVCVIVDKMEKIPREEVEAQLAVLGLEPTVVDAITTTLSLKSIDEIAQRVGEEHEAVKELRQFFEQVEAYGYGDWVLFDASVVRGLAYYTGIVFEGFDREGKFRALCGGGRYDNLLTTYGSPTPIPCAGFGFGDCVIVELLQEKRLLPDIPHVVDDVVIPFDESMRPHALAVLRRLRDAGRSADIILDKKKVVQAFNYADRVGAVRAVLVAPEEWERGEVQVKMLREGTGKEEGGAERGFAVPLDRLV

Data taken from ChEMBL document CHEMBL3988442, “University of Dundee, Small-Polar-MMV Screening Library” (2021).

The filed quantity is “Percent Effect” (%). The record does not define 0% and 100%; most values in the screen are far below 50% and negative numbers occur (in some assays of this library far below -100). The compounds are a random part of those screened.

ClpP1P2: 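ClpP1P2, Mycobacterium tuberculosis (UniProt P9WPC5 and UniProt P9WPC3). Protease assay of ClpP1P2, read by the AMC dye that it sets free. Concentration: 50 µM. Direction is inferred from only a few compounds that gave an IC50; most scored high, so higher reads as stronger inhibition. Most other retested compounds had strongly negative values. Size under these conditions: about 69,000 compounds, about 10 of them at 50% or above in at least one test.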
PfKRS1: 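Enzyme assay of the cytosolic lysyl-tRNA synthetase in 384-well plates, read by luminescence. Target: Lysine-tRNA ligase, Plasmodium falciparum 3D7 (UniProt Q8IDJ8). Compounds at 30 µM. Direction is inferred from only a few compounds that gave an IC50; most scored high, so higher reads as stronger inhibition. About 69,000 compounds were tested under these conditions; 0.071% (about 49) showed 50% or more at least once.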
MtTrpRS: 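Enzyme assay of tryptophanyl-tRNA synthetase; the read-out is not stated. Target: Tryptophan-tRNA ligase, Mycobacterium tuberculosis (UniProt P9WFT3). Compounds at 10 µM. Direction is not recorded; retested compounds ran higher, which suggests that high means inhibition. Size under these conditions: about 65,000 compounds, about 64 of them at 50% or above in at least one test.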
LiHisRS: 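Histidine-tRNA ligase, Leishmania infantum (UniProt A4I591). Enzyme assay of histidyl-tRNA synthetase; the read-out is not stated. Compounds at 30 µM. Higher reads as stronger inhibition (inferred: compounds with an IC50 in retests scored well above the rest). The assay is labelled LdHisRS but filed under L. infantum. About 69,000 compounds were tested under these conditions; 0.6% (about 410) showed 50% or more at least once.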
TcHisRS: 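Enzyme assay of histidyl-tRNA synthetase; the read-out is not stated. Target: Histidine-tRNA ligase, Trypanosoma cruzi CL Brener (UniProt Q4DA54). Tested at 30 µM. Higher reads as stronger inhibition (inferred: compounds with an IC50 in retests scored well above the rest). About 69,000 compounds were tested under these conditions; 0.045% (about 31) showed 50% or more at least once.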
Leishmania in macrophages: 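Cell assay of Leishmania donovani living inside macrophages; the read-out is not stated. Compounds at 30 µM. Direction is inferred from retests: higher values go with stronger inhibition. Of about 69,000 compounds tested this way, about 1,000 (1.5%) reached 50% or more in at least one test.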

O=C(c1ccc(F)c(F)c1)N1CCN2CCCC2C1 (centres unmarked) read ClpP1P2: -8.992%; PfKRS1: 0.9199%; MtTrpRS: -1.364%; LiHisRS: 16.07%; TcHisRS: 2.632%; Leishmania in macrophages: 30.32%.
Cc1nc(-c2ccco2)ccc1C(=O)NCCCN1CCOCC1 read ClpP1P2: -0.1977%; PfKRS1: 8.887%; MtTrpRS: 8.612%; LiHisRS: 22.22%; TcHisRS: 3.067%; Leishmania in macrophages: 21.82%.
CCn1ncc2c1C(COC)CN(Cc1ccc(OC)cc1)C2 (centres unmarked) read ClpP1P2: -5.002%; PfKRS1: -0.389%; MtTrpRS: -1.174%; LiHisRS: 7.547%; TcHisRS: 0%; Leishmania in macrophages: 11.64%.
c1cc(CN2CCO[C@H]3[C@H](OCCN4CCCC4)CC[C@@H]32)ccn1 read ClpP1P2: -20.71%; PfKRS1: 1.604%; MtTrpRS: -5.231%; LiHisRS: 6.944%; TcHisRS: 3.81%.
CC(C)c1noc(CCCC(=O)NC(C)c2nnc3n2CCC3)n1 (centres unmarked) read ClpP1P2: -6.879%; PfKRS1: 0.7675%; MtTrpRS: -3.078%; LiHisRS: 13.11%; TcHisRS: 5.814%; Leishmania in macrophages: 11.88%.
Cc1nn(C)c(N(C)C)c1CNCc1cccc(OCCN(C)C)c1 read ClpP1P2: 26.08%; PfKRS1: -5.663%; MtTrpRS: -7.547%; LiHisRS: 13.6%; TcHisRS: -0.3802%; Leishmania in macrophages: -13.13%.
COc1ccc(CN(C)[C@@H]2COC[C@H]2c2ccc(F)cc2)c(OC)c1 read ClpP1P2: -16.8%; PfKRS1: 3.052%; MtTrpRS: -6.332%; LiHisRS: 16.78%; TcHisRS: 15.82%.
CCC(CO)N(Cc1cccc(-n2cccn2)c1)Cc1cccs1 (centres unmarked) read ClpP1P2: -3.107%; PfKRS1: -0.4302%; MtTrpRS: -3.48%; LiHisRS: -5%; TcHisRS: 6.818%; Leishmania in macrophages: -41.23%.
Cc1cc(C2CCCN2S(=O)(=O)c2cnn(C)c2)on1 (centres unmarked) read ClpP1P2: -10.81%; PfKRS1: 6.569%; MtTrpRS: 2.21%; LiHisRS: 24.05%; TcHisRS: 5.603%; Leishmania in macrophages: 19.06%.
Cc1cc(S(=O)(=O)Nc2cccc(I)c2)sc1C(=O)O read ClpP1P2: 0.3377%; PfKRS1: -1.057%; MtTrpRS: 27.18%; LiHisRS: 18.03%; TcHisRS: 30.23%; Leishmania in macrophages: -8.667%.
Cc1cc(C)n(CC2CCCN2C(=O)c2ccc3c(c2)nnn3C)n1 (centres unmarked) read ClpP1P2: -3.247%; PfKRS1: -0.2434%; MtTrpRS: -0.6415%; LiHisRS: 23.08%; TcHisRS: 1.653%; Leishmania in macrophages: 8.735%.
CN1CCN(S(=O)(=O)c2cccc(S(=O)(=O)C3CCS(=O)(=O)C3)c2)CC1 (centres unmarked) read ClpP1P2: -14.59%; PfKRS1: -6.634%; MtTrpRS: -0.6431%; LiHisRS: 17.39%; TcHisRS: 2.97%; Leishmania in macrophages: -9.799%.
O=C(O)C(F)(F)F.O=C(O)C(F)(F)F.c1cncc(-c2ccc3c(c2)CCC32CCN(Cc3nccs3)CC2)c1 read Leishmania in macrophages: 20.15%.
Cc1cc(C2CCCN2Cc2cccc(C(=O)Nc3nccs3)c2)no1 (centres unmarked) read ClpP1P2: -5.808%; PfKRS1: 2.961%; MtTrpRS: -3.765%; LiHisRS: 16.87%; TcHisRS: 12.71%; Leishmania in macrophages: -64.43%.
[H][C@]12CCN[C@@]1([H])CN(C(=O)CC(F)(F)F)C2 read Leishmania in macrophages: 17.9%.
[H][C@]12OCCC[C@]1([H])N(C(=O)c1ccccn1)C[C@H]2OCc1cccnc1 read Leishmania in macrophages: 15.42%.
CCOC(=O)CNC(=O)c1cc(-c2ccccc2)nc2ncnn12 read ClpP1P2: -14.63%; PfKRS1: 1.808%; MtTrpRS: 0.1434%; LiHisRS: 8.85%; TcHisRS: 3.509%; Leishmania in macrophages: -30.86%.
O=C(c1ccc[nH]1)N1CCCC2(CCCN2Cc2cccnc2)C1 (centres unmarked) read ClpP1P2: 18.73%; PfKRS1: -7.21%; MtTrpRS: 6.673%; LiHisRS: 15.79%; TcHisRS: -3.448%; Leishmania in macrophages: 25.05%.
COCC(O)CN(C)C(=O)c1cccc(-c2csc(C)n2)c1 (centres unmarked) read ClpP1P2: -16.1%; PfKRS1: 7.187%; MtTrpRS: 1.272%; LiHisRS: 8.621%; TcHisRS: 3.665%; Leishmania in macrophages: 4.778%.
CC(=O)NCCn1ccnc1-c1cccc(C(C)N(C)C)c1 (centres unmarked) read ClpP1P2: 4.702%; PfKRS1: 3.577%; MtTrpRS: 0.07764%; LiHisRS: -5.714%; TcHisRS: 3.093%; Leishmania in macrophages: -1.911%.
COc1ccc(Cl)cc1Nc1nc(N)c(C(C)=O)s1 read ClpP1P2: 4.706%; PfKRS1: 2.226%; MtTrpRS: -9.202%; LiHisRS: 21.05%; TcHisRS: 12.2%; Leishmania in macrophages: 19.3%.

2 of the entries, repeated:

With Cc1cc(C2CCCN2S(=O)(=O)c2cnn(C)c2)on1 (centres unmarked) the screen gave ClpP1P2: -10.81%; PfKRS1: 6.569%; MtTrpRS: 2.21%; LiHisRS: 24.05%; TcHisRS: 5.603%; Leishmania in macrophages: 19.06%.
With CCn1ncc2c1C(COC)CN(Cc1ccc(OC)cc1)C2 (centres unmarked) the screen gave ClpP1P2: -5.002%; PfKRS1: -0.389%; MtTrpRS: -1.174%; LiHisRS: 7.547%; TcHisRS: 0%; Leishmania in macrophages: 11.64%.